Assay results: the supplement of paper PMC3334620
Whole data set: some 33,000 sequences, median “E-score (-0.5 to 0.5)” near -0.0034, cut for the highest 2% near 0.25. The list shows a part of the results.

biological target: T1, Yap3 (UniProt P38749); test: PBM E-score (8-mer binding enrichment) (E-score (-0.5 to 0.5)); higher = stronger / more preferred TF binding; conditions: protein concentration: 100 nM; construct: GST-full length
T1 sequence: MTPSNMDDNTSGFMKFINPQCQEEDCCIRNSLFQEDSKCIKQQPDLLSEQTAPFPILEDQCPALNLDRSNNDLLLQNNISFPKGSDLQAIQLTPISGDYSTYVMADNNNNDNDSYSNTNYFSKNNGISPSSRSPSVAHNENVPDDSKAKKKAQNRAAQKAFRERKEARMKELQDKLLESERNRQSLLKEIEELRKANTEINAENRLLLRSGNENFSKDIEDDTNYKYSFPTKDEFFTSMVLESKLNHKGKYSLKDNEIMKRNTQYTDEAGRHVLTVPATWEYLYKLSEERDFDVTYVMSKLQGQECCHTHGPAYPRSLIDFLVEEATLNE
How it was run: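 Yeast transcription factors, full-length or as DNA-binding domains, were expressed with a GST tag using PURExpress in vitro transcription/translation. At about 100-200 nM they were applied to universal all-10-mer Agilent arrays, double-stranded by primer extension on fresh or once-stripped slides. Fluorescent anti-GST detected bound protein, and masliner normalised the scans. E-scores for ungapped eight-base words, pooled with reverse complements, came from the Universal PBM Analysis Suite.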

Going from GCTCTAAA to ATATATGC, the “PBM E-score” value rises from 0.0373 to 0.224.

Compared with GAATCAGA, AGATAGAC is lower in “PBM E-score” value: 0.129 for the first, 0.0205 for the second.

Going from CTGCTTGA to ACGCTTGG, the “PBM E-score” value rises from -0.183 to -0.0422.

Compared with CAAGATTC, ACAGTATC is higher in “PBM E-score” value: -0.113 for the first, 0.0363 for the second.

First: AGCTAACT
Second: ATGAATAA
The “PBM E-score” value of the first is lower: 0.00051 for the first, 0.195 for the second.

Going from AGGGAACT to GCTATGGA, the “PBM E-score” value rises from -0.142 to -0.0121.

Going from GACGGACC to ATCTGGGA, the “PBM E-score” value rises from -0.103 to -0.0628.

Going from CAAGGGCG to CTCCTTCC, the “PBM E-score” value rises from -0.176 to -0.171.

First: ACGCAGAT
Second: CGCGCATC
The “PBM E-score” value of the first is higher: -0.0598 for the first, -0.118 for the second.

First: AATAACGG
Second: GACGATGC
The “PBM E-score” value of the first is higher: 0.253 for the first, -0.13 for the second.

First: CCACCCAA
Second: AGCTACGG
The “PBM E-score” value of the first is lower: -0.0309 for the first, 0.00612 for the second.

Compared with TCGCGAGA, CGATGGTA is lower in “PBM E-score” value: 0.00323 for the first, -0.0126 for the second.

Going from CAAAGGAC to ATTTTTAA, the “PBM E-score” value rises from -0.142 to 0.295.

First: ACGCGCCA
Second: AGTCAAGC
The “PBM E-score” value of the first is higher: -0.183 for the first, -0.19 for the second.

First: GCAACACC
Second: CGAAACCG
The “PBM E-score” value of the first is lower: 0.0438 for the first, 0.0574 for the second.

Going from CAACTATC to GCCACAGA, the “PBM E-score” value falls from 0.0393 to -0.332.

Going from AATGGGCA to AAAAATGA, the “PBM E-score” value rises from 0.0565 to 0.197.

Going from CAACAAGG to CTGTGCAC, the “PBM E-score” value falls from 0.141 to -0.117.

Compared with ATAAGGAG, CTCCTGTC is higher in “PBM E-score” value: -0.0536 for the first, -0.027 for the second.

Going from GCCGTTAC to CTCCATCA, the “PBM E-score” value falls from 0.0255 to -0.0379.

First: GGTGGCAC
Second: AAGGGTGG
The “PBM E-score” value of the first is lower: -0.193 for the first, -0.165 for the second.

First: ATTGAGGA
Second: TCTAATAA
The “PBM E-score” value of the first is lower: 0.148 for the first, 0.167 for the second.

First: ACGTATGC
Second: AGCCACCA
The “PBM E-score” value of the first is higher: 0.00249 for the first, -0.0526 for the second.

Compared with ATATATAG, GATACGCA is lower in “PBM E-score” value: 0.231 for the first, 0.101 for the second.

Going from GAGCAGGA to GGGGCACA, the “PBM E-score” value falls from -0.00825 to -0.273.

Compared with GGCAAGAA, GTTCGCTA is lower in “PBM E-score” value: 0.195 for the first, -0.0447 for the second.

Going from ATTCATGC to AGCAACGA, the “PBM E-score” value rises from 0.0948 to 0.117.

First: ACCCTGAA
Second: GATCAACC
The “PBM E-score” value of the first is higher: -0.0609 for the first, -0.188 for the second.

Compared with ACACAGTG, TAAGAACA is higher in “PBM E-score” value: 0.07 for the first, 0.326 for the second.

Compared with GTTCTTTA, TCGCTCAA is lower in “PBM E-score” value: 0.224 for the first, 0.149 for the second.

First: TCGCAAAA
Second: GGCGATAC
The “PBM E-score” value of the first is higher: 0.0856 for the first, -0.0764 for the second.

Going from AGAATTTA to TCGTTTAA, the “PBM E-score” value falls from 0.276 to 0.0907.

Compared with AATGATGA, CTGGGATA is lower in “PBM E-score” value: 0.189 for the first, -0.0867 for the second.

First: CCAGGGGA
Second: CTTACCGA
The “PBM E-score” value of the first is lower: -0.334 for the first, -0.0558 for the second.

First: AAGCATGA
Second: TCGCGACA
The “PBM E-score” value of the first is lower: 0.00576 for the first, 0.0582 for the second.

Going from CCAGTCTC to AACCTCAC, the “PBM E-score” value rises from -0.22 to -0.136.

Going from CCACCACG to GCCAAGCC, the “PBM E-score” value falls from -0.0554 to -0.204.

First: CTAAACCA
Second: ATATCATC
The “PBM E-score” value of the first is lower: -0.175 for the first, 0.14 for the second.

Compared with TCGTACCA, ACTGCGCT is lower in “PBM E-score” value: 0.124 for the first, 0.0128 for the second.

Going from ACGGATTA to AATGTGAA, the “PBM E-score” value rises from 0.109 to 0.255.

Going from TAGGCCTA to GCCTCGAA, the “PBM E-score” value falls from 0.105 to 0.0153.

Compared with GCGTTGCA, AAAGCCTG is lower in “PBM E-score” value: -0.112 for the first, -0.145 for the second.

Going from ATAGGGAC to AGGCTTCA, the “PBM E-score” value falls from -0.139 to -0.16.

First: ATGTTCCA
Second: CCTAGAAG
The “PBM E-score” value of the first is higher: 0.0432 for the first, -0.131 for the second.

First: CTGAATTC
Second: ACTCTGGA
The “PBM E-score” value of the first is lower: 0.0354 for the first, 0.0914 for the second.

Going from GCCGCGCC to GCTACCAA, the “PBM E-score” value falls from -0.124 to -0.158.

Going from AGATAGTG to ACTGGAGG, the “PBM E-score” value falls from 0.232 to -0.105.

Compared with ACTGCGGA, ACCGCGCT is lower in “PBM E-score” value: 0.0453 for the first, 0.00168 for the second.

Going from ACTCTCGC to AGGAACGA, the “PBM E-score” value falls from -0.0207 to -0.0493.

Going from ACTCAGCT to ATCTGCAA, the “PBM E-score” value falls from 0.0229 to -0.101.

Going from CCGACTGC to AAAGCCAA, the “PBM E-score” value falls from -0.0495 to -0.071.

First: CCCTGAAA
Second: CCTGTAAA
The “PBM E-score” value of the first is higher: -0.024 for the first, -0.0789 for the second.

Compared with AGATATGG, GATCGGGC is lower in “PBM E-score” value: 0.191 for the first, -0.198 for the second.

Compared with ACTTTTAA, CCACGAGC is lower in “PBM E-score” value: 0.0488 for the first, -0.16 for the second.

Going from AGTTTCCC to CGCGAAGA, the “PBM E-score” value rises from -0.111 to 0.0316.

Compared with GGCCCGAA, ATGGGTTA is lower in “PBM E-score” value: 0.0391 for the first, -0.0104 for the second.

First: CCGCTTCA
Second: AGAGAGAT
The “PBM E-score” value of the first is lower: -0.111 for the first, 0.0305 for the second.

Compared with GCAGACAA, AGGAGGTA is lower in “PBM E-score” value: 0.129 for the first, 0.01 for the second.

First: AGCACGCC
Second: CAGACTTC
The “PBM E-score” value of the first is lower: -0.157 for the first, -0.146 for the second.

Compared with AGACCCAC, ATTTTAGA is higher in “PBM E-score” value: -0.0619 for the first, 0.0566 for the second.

First: GGTCCAAA
Second: CTAGGTGA
The “PBM E-score” value of the first is lower: -0.111 for the first, -0.0157 for the second.

Compared with ACGCACGC, CGTAGCCA is lower in “PBM E-score” value: 0.262 for the first, -0.0722 for the second.

Compared with CAGTGCAG, AAACCTGA is lower in “PBM E-score” value: -0.00824 for the first, -0.0213 for the second.

Compared with ACTGAAGG, GCGCTTGA is higher in “PBM E-score” value: -0.13 for the first, 0.13 for the second.

Compared with CGTACCAG, AGCCGTCA is higher in “PBM E-score” value: -0.155 for the first, -0.0691 for the second.

Compared with TTGGACAA, ATGTACAT is higher in “PBM E-score” value: 0.143 for the first, 0.225 for the second.

Going from AGATCGTA to ATGGTAAT, the “PBM E-score” value rises from -0.0596 to 0.128.

Going from AACCATGG to AGCCACGG, the “PBM E-score” value falls from -0.0519 to -0.251.

First: CTCAACAA
Second: ATTCGAGG
The “PBM E-score” value of the first is higher: 0.14 for the first, -0.106 for the second.

Compared with CCAGAGGG, ATCTTTGG is higher in “PBM E-score” value: -0.184 for the first, -0.0595 for the second.

Compared with GATCCTAA, AATATAAA is higher in “PBM E-score” value: -0.0348 for the first, 0.282 for the second.

Compared with GACATCCC, AGTCTAGC is lower in “PBM E-score” value: -0.0566 for the first, -0.207 for the second.

Going from ATATTACA to GGCAGAAC, the “PBM E-score” value falls from 0.226 to 0.0224.

Compared with CTTGGTAA, CGGTTGGC is higher in “PBM E-score” value: 0.101 for the first, 0.107 for the second.

Compared with GAATCGTC, AGCATAGA is lower in “PBM E-score” value: -0.0255 for the first, -0.0751 for the second.

First: ATGCCCGA
Second: CTCACTTC
The “PBM E-score” value of the first is higher: -0.013 for the first, -0.193 for the second.

First: GATTTGGC
Second: ACGTCACT
The “PBM E-score” value of the first is lower: -0.0271 for the first, 0.0465 for the second.

Going from CCACATAA to CGGCGCAA, the “PBM E-score” value falls from 0.0607 to -0.0572.

Going from CCTCTCGC to ATCGCAAT, the “PBM E-score” value rises from -0.0838 to 0.168.

First: TAATATTA
Second: CGCGACAA
The “PBM E-score” value of the first is higher: 0.347 for the first, 0.272 for the second.

First: AGCCACAT
Second: AACAGTGT
The “PBM E-score” value of the first is higher: 0.0698 for the first, 0.0419 for the second.

First: CGACGATC
Second: CACAAGCC
The “PBM E-score” value of the first is higher: 0.123 for the first, -0.186 for the second.

Compared with CCCATTTA, ATGATCAT is higher in “PBM E-score” value: 0.0472 for the first, 0.0725 for the second.

Going from CGAGGGCC to AAAGGAGG, the “PBM E-score” value falls from -0.0155 to -0.232.

Going from CAATAATC to GAAGTCTC, the “PBM E-score” value falls from 0.142 to -0.16.

Compared with CGGAAACA, ACGAACGT is higher in “PBM E-score” value: 0.0155 for the first, 0.0464 for the second.
